Measurements from paper PMC10904854.
No constants are given. Whether binding was seen depends on the method and setting. Some results given as binding are weak or reduced against the parent protein; the word gives no strength. For some assays here: Sequences can lack the tags named with a protein.

Key:
[1] = biological target: TRRAP_(2038-2087) synthetic peptide; assay: native MS; each peptide alone: coreMYC 31 uM, TRRAP peptide 30 uM, 100 mM ammonium acetate pH 7, nESI, positive mode; both purified
[2] = biological target: TRRAP_(2038-2087) synthetic peptide; assay: condition: only coreMYC pre-incubated with 150 μM EGCG; native MS; coreMYC pre-incubated with EGCG (30 min, 37 C; 150 uM in the results) before TRRAP_(2038-2087) was added; ammonium acetate, sample cone 10 V; both purified
[3] = biological target: MGHis6-coreMYC (c-MYC residues 101-150) (human); assay: native MS; each peptide alone: coreMYC 31 uM, TRRAP peptide 30 uM, 100 mM ammonium acetate pH 7, nESI, positive mode; both purified
[4] = biological target: Recombinant human TATA binding protein (ab81897, Abcam) (human); assay: native MS; coreMYC pre-incubated with a 10-fold excess of EGCG (30 min, 37 C) before it was added to TBP; ammonium acetate, sample cone 50 V; both purified
[5] = biological target: Recombinant human TATA binding protein (ab81897, Abcam) (human); assay: condition: only coreMYC pre-incubated with a 10-fold excess of EGCG; native MS; coreMYC pre-incubated with a 10-fold excess of EGCG (30 min, 37 C) before it was added to TBP; ammonium acetate, sample cone 50 V; both purified

binding [1]	binding [2]	binding [3]	binding [4]	binding [5]	Binder
no binding (tested: 30 μM)					GVNSVSSSIKRGLSVDSAQEVKRFRTATGAISAVFGRSQSLPGADSLLAK (N-terminal acetyl (Ac-), C-terminal amide (-NH2)) [TRRAP_(2038-2087) synthetic peptide]
	no binding	no binding (tested: 31 μM)	binds weakly	no binding	MVTELLGGDMVNQSFICDPDDETFIKNIIIQDCMWSGFSAAAKLVSEKLA [MGHis6-coreMYC (c-MYC residues 101-150)]
